# Assay results reported in PubChem BioAssay AID720588 (Broad Institute, 2013).
# Inconclusive means that the source gave no clear call.
# Test: ATP-based viability loss in HEK293T cells – cell-based, CellTiter-Glo luminescence, cherry-pick, set 3, cytotoxicity control, dose response (AID 720588)
# Details: 72 h; at 26 µM (top of the series);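 active = fitted curve falls past a set limit of signal loss at no more than twice the top dose; inconclusive = flat fit between 30 and 70% signal loss, or poor fit; inactive = signal rise, flat within 30%, or crossing too high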
smiles,measurement,value
CC[C@@H]1C[C@H]2CC[C@H](O2)[C@H](C)C(=O)O[C@@H](C)C[C@@H]2CC[C@@H](O2)[C@@H](C)C(=O)O[C@H](C)C[C@H]2CC[C@H](O2)[C@H](C)C(=O)O[C@@H](C)C[C@@H]2CC[C@@H](O2)[C@@H](C)C(=O)O1,"activity change, negative = cytotoxicity",inconclusive: -39.9%
